Earlier results as cited in patent US12128114B2, “177Lu-DOTA-HYNIC-iPSMA as a therapeutic radiopharmaceutical targeting prostate-specific membrane antigen” (INSTITUTO NACIONAL DE INVESTIGACIONES NUCLEARES, priority 2018, dated 2024).
Some of these results come from one statement about several compounds together. For at least one compound, name, drawing or mass did not settle the structure.

System: prostate cancer
Conditions: clinical studies, literature; cited from earlier work

## O=C([O-])CN1CCN(CC(=O)[O-])CCN(CC(=O)NCC2CCC(C(=O)N[C@@H](Cc3ccc4ccccc4c3)C(=O)NCCCC[C@H](NC(=O)N[C@@H](CCC(=O)O)C(=O)O)C(=O)O)CC2)CCN(CC(=O)[O-])CC1.[177Lu+3] (stereo partly shown) [Lu-PSMA-617]
  PC patients with significant reduction in prostate antigen (PSA) levels: 50-70%
